PubChem BioAssay AID504804 – Drosophila RNAi Screening Center – 2011

Aim: 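dsRNAs that improve Kc cell survival under doxorubicin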 (primary screen)
Cells: Drosophila Kc cells
Knock-down reagent: long dsRNA against Drosophila genes, 0.5 µg dsRNA per well
Duration: 96 h (48 h knock-down, then 48 h drug)
Challenge: doxorubicin 5 µg/ml for 48 h, added 48 h after dsRNA
Measured: 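Luminescent ATP counts per replicate, not normalised, reflecting viable cells after 48 h dsRNA knock-down followed by 48 h of 5 µg/ml doxorubicin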
Scale: raw ATP luminescence: higher = more viable cells, protection from doxorubicin
Rule for the call: 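Active when both duplicate wells lie at least 2 SD above the plate mean and protection is confirmed by rescreening and independent dsRNAs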
The screen tested about 19,000 reagents; this is an unselected part of those with a known target gene and a result. In the full data, 47 (0.25%) were called active. 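Signals are raw, not normalised; exact z-scores behind calls not deposited; actives needed confirmation, so some wells reaching 2 SD are inactive.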 A number with no mark means an inactive call. Reagents against one gene are numbered here. Names joined by + are all predicted targets of the reagent.

For Shark (GeneID 44353), how do the results read?
raw ATP luminescence, replicate 1: 57810; raw ATP luminescence, replicate 2: 52540

Which result is listed for CG31999 (GeneID 43777) #1?
raw ATP luminescence, replicate 1: 54850; raw ATP luminescence, replicate 2: 46280

For CG31999 (GeneID 43777) #2, what does the deposit list?
raw ATP luminescence, replicate 1: 47740; raw ATP luminescence, replicate 2: 44400

With Obp83a (GeneID 40737), what does the deposit list?
raw ATP luminescence, replicate 1: 44877; raw ATP luminescence, replicate 2: 51797

With Hmx (GeneID 42110) #1, what was measured?
raw ATP luminescence, replicate 1: 80600; raw ATP luminescence, replicate 2: 66880

With Hmx (GeneID 42110) #2, what was measured?
raw ATP luminescence, replicate 1: 93850; raw ATP luminescence, replicate 2: 96010

For Nmdar2 (GeneID 31107) #1, how do the results read?
raw ATP luminescence, replicate 1: 58950; raw ATP luminescence, replicate 2: 48790

What is on record for Nmdar2 (GeneID 31107) #2?
raw ATP luminescence, replicate 1: 55400; raw ATP luminescence, replicate 2: 54550

What did the screen give for Nmdar2 (GeneID 31107) #3?
raw ATP luminescence, replicate 1: 47190; raw ATP luminescence, replicate 2: 48510

What is on record for Rab11 (GeneID 42501)?
raw ATP luminescence, replicate 1: 41130; raw ATP luminescence, replicate 2: 47540

With cactin (GeneID 33043), what does the deposit list?
raw ATP luminescence, replicate 1: 3.79e5; raw ATP luminescence, replicate 2: 4.71e5

How did the screen score CG11030 (GeneID 33805)?
raw ATP luminescence, replicate 1: 31773; raw ATP luminescence, replicate 2: 34553

For Zip42C.1 (GeneID 35579), what does the deposit list?
raw ATP luminescence, replicate 1: 55450; raw ATP luminescence, replicate 2: 56677

How did the screen score Paip2 (GeneID 41591)?
raw ATP luminescence, replicate 1: 67353; raw ATP luminescence, replicate 2: 29383

What is on record for lace (GeneID 34910)?
raw ATP luminescence, replicate 1: 1.02e5; raw ATP luminescence, replicate 2: 77643

What is on record for GILT1 (GeneID 41650)?
raw ATP luminescence, replicate 1: 43950; raw ATP luminescence, replicate 2: 22780

For comt (GeneID 47091), what does the deposit list?
raw ATP luminescence, replicate 1: 3.13e5; raw ATP luminescence, replicate 2: 3.39e5

Which result is listed for ck (GeneID 34882)?
raw ATP luminescence, replicate 1: 63897; raw ATP luminescence, replicate 2: 48760

For CG3841 (GeneID 34278), what was measured?
raw ATP luminescence, replicate 1: 40660; raw ATP luminescence, replicate 2: 83813

Which result is listed for ninaG (GeneID 41369)?
raw ATP luminescence, replicate 1: 57103; raw ATP luminescence, replicate 2: 57703

For CycB (GeneID 37618), what was measured?
raw ATP luminescence, replicate 1: 66450; raw ATP luminescence, replicate 2: 53027

How did the screen score BEAF-32 + CG42254 (retired record)?
raw ATP luminescence, replicate 1: 66437; raw ATP luminescence, replicate 2: 82717

With Aasdh (GeneID 34175), what was measured?
raw ATP luminescence, replicate 1: 44180; raw ATP luminescence, replicate 2: 60940

For HnRNP-K (GeneID 43862), what was measured?
raw ATP luminescence, replicate 1: 59647; raw ATP luminescence, replicate 2: 69107

What is on record for Rtf1 (GeneID 37554)?
raw ATP luminescence, replicate 1: 1.01e5; raw ATP luminescence, replicate 2: 73773

With Tektin-A (GeneID 34934), what does the deposit list?
raw ATP luminescence, replicate 1: 82697; raw ATP luminescence, replicate 2: 67433

Which result is listed for Nepl15 (GeneID 42701)?
raw ATP luminescence, replicate 1: 41013; raw ATP luminescence, replicate 2: 41567

How did the screen score CG33288 (GeneID 2768968)?
raw ATP luminescence, replicate 1: 55950; raw ATP luminescence, replicate 2: 56620

For l(2)27Cb (retired record) (GeneID 48760), what was measured?
raw ATP luminescence, replicate 1: 25723; raw ATP luminescence, replicate 2: 32377

What is on record for CG33679 (GeneID 3772494)?
raw ATP luminescence, replicate 1: 2.50e5; raw ATP luminescence, replicate 2: 2.75e5

How did the screen score Mlh1 (GeneID 35796)?
raw ATP luminescence, replicate 1: 69030; raw ATP luminescence, replicate 2: 52713

For rtp (GeneID 40627), how do the results read?
raw ATP luminescence, replicate 1: 38700; raw ATP luminescence, replicate 2: 39490

For ZnT86D (GeneID 41342), how do the results read?
raw ATP luminescence, replicate 1: 65513; raw ATP luminescence, replicate 2: 44227

With nesd (GeneID 35298), how do the results read?
raw ATP luminescence, replicate 1: 94613; raw ATP luminescence, replicate 2: 73910

How did the screen score HDAC3 (GeneID 44446)?
raw ATP luminescence, replicate 1: 52617; raw ATP luminescence, replicate 2: 30333

Which result is listed for Glys (GeneID 41823)?
raw ATP luminescence, replicate 1: 41940; raw ATP luminescence, replicate 2: 17857

3 neighbouring records from above, for reference:
Rab11 (GeneID 42501) | raw ATP luminescence, replicate 1 = 41130; raw ATP luminescence, replicate 2 = 47540
cactin (GeneID 33043) | raw ATP luminescence, replicate 1 = 3.79e5; raw ATP luminescence, replicate 2 = 4.71e5
CG11030 (GeneID 33805) | raw ATP luminescence, replicate 1 = 31773; raw ATP luminescence, replicate 2 = 34553
